From patent US10041935B2, “Identification of olfactory receptors sensitive to different odorants” (New York University, priority 2013, dated 2018)

Tested on: cultured rat hippocampal neurons
Assay: Retention of fluorescence after 4% paraformaldehyde fixation of neurons
Type: cell-based
Conditions: 10 mM EGTA in washes

Substance: CaMPARI v1: isolated polypeptide comprising CaM, EosFP, and M13, SEQ ID NO: 1; Calcium-Modulated Photoactivatable Ratiometric Integrator
- green fluorescence signal retained relative to images before fixation: 40%
- red fluorescence signal retained relative to images before fixation: 60%
